No constants are given. Whether binding was seen depends on the method and setting. Binding seen in cells or lysates may run through a third protein. A yes stands for co-enrichment or nearness to the bait. Other partners may have been found. For part of these data: Tags and fused reporters may be left off the sequences shown.
How the values were obtained:
[1] = target: T1, PTPRK ICD-C1089S (substrate-trapping mutant) (human) (UniProt Q15262); assay: affinity purification with mass spectrometry; biotinylated His.TEV.Avi PTPRK domains on streptavidin-coated magnetic beads; 1 mg/ml pre-cleared lysate of confluent, pervanadate-treated MCF10A cells, 1.5 hr at 4°C; washes with 150 mM and 500 mM NaCl wash buffers; on-bead tryptic digest; label-free quantification against beads only or the wildtype ICD (n = 4; D2 n = 3); only the target purified
T1 sequence (chain, biotin on the AviTag): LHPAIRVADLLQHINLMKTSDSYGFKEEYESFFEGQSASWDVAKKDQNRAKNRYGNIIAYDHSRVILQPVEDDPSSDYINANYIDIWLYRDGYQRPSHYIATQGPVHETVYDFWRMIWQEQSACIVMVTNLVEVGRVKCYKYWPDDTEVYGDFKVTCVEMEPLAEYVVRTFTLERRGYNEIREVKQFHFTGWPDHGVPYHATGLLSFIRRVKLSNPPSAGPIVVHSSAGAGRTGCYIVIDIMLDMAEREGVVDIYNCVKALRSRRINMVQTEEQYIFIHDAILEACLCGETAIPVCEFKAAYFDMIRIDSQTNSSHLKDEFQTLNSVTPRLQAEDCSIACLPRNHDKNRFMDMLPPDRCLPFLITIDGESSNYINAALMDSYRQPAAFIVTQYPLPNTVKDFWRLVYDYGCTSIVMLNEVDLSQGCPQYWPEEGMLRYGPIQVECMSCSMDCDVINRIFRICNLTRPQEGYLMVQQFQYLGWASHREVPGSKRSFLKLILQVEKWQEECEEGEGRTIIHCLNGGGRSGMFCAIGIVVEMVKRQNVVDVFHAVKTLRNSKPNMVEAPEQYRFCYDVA

Amino acid sequences for entries named in this document (tags omitted).
UniProt Q8TEW0: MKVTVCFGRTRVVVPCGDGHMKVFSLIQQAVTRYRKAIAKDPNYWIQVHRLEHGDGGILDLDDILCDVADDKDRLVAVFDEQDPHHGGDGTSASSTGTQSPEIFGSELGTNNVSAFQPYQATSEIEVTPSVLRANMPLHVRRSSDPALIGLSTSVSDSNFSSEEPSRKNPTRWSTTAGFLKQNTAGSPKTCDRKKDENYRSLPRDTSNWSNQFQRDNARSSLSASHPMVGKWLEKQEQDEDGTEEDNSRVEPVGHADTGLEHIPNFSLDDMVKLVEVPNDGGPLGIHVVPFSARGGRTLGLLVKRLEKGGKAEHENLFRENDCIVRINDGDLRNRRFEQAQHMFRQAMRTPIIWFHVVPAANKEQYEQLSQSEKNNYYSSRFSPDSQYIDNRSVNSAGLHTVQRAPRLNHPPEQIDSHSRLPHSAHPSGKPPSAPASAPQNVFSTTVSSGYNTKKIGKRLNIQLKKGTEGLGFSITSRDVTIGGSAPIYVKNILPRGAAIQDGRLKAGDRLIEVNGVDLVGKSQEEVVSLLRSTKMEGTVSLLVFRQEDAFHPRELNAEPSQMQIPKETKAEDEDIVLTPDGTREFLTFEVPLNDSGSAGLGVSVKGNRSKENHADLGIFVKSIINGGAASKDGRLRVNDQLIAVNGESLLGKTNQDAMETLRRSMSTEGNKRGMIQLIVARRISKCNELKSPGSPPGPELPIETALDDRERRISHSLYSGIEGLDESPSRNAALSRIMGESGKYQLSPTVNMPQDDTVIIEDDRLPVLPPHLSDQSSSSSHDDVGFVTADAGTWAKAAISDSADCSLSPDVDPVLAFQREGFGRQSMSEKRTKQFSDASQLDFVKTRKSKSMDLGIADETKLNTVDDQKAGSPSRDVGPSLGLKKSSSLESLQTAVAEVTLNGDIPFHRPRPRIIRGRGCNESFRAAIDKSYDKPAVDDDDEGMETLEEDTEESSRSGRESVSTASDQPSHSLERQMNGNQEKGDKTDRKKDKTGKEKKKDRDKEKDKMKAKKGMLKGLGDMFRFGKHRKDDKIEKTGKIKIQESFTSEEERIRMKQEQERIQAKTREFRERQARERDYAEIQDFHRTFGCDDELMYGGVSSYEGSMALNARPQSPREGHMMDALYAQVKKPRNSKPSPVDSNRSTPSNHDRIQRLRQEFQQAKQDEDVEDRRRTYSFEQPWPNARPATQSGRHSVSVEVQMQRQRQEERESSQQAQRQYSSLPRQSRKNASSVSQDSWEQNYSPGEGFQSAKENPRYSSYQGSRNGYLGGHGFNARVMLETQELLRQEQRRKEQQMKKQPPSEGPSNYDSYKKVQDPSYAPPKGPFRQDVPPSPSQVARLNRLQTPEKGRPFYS
UniProt O95819: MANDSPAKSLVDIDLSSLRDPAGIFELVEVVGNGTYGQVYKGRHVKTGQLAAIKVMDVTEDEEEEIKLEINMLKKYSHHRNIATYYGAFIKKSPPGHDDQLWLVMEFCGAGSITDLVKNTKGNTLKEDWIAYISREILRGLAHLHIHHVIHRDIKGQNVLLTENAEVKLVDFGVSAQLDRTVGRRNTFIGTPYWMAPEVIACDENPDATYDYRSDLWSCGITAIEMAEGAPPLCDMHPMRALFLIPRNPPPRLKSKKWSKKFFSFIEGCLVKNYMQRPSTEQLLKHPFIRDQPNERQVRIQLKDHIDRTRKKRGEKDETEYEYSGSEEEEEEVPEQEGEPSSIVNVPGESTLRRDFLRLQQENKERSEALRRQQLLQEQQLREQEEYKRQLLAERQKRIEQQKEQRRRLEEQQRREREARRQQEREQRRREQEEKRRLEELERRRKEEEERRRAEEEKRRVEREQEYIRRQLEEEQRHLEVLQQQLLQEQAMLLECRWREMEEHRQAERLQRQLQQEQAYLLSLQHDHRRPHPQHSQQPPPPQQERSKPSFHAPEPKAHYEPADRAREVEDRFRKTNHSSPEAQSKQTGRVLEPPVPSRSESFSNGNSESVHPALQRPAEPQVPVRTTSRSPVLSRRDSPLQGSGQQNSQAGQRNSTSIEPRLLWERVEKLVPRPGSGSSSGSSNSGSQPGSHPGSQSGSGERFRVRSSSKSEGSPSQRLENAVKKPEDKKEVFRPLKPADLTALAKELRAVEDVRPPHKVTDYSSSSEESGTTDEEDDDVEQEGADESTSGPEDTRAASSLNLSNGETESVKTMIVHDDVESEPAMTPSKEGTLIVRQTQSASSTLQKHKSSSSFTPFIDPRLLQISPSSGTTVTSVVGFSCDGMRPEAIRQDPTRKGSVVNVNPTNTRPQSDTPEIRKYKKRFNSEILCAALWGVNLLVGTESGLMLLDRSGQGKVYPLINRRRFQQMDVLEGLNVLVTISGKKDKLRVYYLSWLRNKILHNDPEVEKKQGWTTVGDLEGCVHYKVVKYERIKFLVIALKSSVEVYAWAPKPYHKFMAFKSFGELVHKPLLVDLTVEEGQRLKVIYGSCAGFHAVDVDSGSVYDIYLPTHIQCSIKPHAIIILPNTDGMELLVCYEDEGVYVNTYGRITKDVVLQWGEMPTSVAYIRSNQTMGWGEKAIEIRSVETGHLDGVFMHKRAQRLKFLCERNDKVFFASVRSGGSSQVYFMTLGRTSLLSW
UniProt Q8TEU7: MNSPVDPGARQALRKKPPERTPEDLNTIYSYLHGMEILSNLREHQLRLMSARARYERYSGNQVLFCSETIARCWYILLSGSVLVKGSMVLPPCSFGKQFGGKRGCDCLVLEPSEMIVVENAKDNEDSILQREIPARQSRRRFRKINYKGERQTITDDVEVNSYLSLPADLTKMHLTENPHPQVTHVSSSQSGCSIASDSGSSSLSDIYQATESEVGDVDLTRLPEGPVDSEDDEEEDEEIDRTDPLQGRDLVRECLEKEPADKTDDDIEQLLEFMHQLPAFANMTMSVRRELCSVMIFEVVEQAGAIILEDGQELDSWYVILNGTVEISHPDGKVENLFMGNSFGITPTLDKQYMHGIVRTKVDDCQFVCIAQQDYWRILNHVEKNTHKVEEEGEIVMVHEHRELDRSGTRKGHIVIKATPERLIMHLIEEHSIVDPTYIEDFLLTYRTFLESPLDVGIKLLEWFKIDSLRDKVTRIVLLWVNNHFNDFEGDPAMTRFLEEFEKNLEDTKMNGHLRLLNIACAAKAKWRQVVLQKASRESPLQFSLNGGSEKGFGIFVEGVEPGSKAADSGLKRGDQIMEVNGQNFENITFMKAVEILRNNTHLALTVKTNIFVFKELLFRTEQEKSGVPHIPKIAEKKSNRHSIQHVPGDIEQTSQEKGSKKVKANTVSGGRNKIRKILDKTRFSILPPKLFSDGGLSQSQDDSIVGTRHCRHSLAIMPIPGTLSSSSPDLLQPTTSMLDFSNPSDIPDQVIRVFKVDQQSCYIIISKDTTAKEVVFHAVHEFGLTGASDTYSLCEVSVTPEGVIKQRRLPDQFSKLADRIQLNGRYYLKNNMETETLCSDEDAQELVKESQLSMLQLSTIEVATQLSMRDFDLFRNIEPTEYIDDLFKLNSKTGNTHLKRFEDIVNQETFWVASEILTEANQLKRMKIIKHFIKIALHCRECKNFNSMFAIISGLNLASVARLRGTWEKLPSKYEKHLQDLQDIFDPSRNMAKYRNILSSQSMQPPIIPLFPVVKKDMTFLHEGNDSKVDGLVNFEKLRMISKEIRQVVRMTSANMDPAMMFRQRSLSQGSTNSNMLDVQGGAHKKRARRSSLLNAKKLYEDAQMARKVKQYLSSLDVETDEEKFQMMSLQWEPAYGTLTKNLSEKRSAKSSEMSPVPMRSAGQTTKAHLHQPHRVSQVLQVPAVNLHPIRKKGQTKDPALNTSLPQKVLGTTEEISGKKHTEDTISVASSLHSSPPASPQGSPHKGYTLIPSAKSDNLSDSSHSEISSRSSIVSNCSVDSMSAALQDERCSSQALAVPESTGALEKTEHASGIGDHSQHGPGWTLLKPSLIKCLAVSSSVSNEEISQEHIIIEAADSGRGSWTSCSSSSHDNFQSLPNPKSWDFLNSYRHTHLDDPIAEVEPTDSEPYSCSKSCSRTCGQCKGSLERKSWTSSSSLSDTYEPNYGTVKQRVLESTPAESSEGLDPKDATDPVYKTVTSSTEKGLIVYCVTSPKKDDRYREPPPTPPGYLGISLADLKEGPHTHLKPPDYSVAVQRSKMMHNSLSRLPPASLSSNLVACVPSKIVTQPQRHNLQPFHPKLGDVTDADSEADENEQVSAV

[2] = target: T1, PTPRK ICD-C1089S (substrate-trapping mutant) (human); assay: affinity purification with mass spectrometry; as for MCF10A, with lysates of confluent, pervanadate-treated Hs27 human fibroblasts (n = 3); only the target purified
[3] = target: T2, PTPRK-C1089S.BirA*-Flag (human) (UniProt Q15262); assay: proximity labelling; BioID in confluent MCF10A cells: doxycycline-induced PTPRK-C1089S.BirA*-Flag compared with PTPRK(1-785).BirA*-Flag and tGFP; 50 μM biotin for 24 hr; RIPA lysis, streptavidin agarose pull down, immunoblot
T2 sequence: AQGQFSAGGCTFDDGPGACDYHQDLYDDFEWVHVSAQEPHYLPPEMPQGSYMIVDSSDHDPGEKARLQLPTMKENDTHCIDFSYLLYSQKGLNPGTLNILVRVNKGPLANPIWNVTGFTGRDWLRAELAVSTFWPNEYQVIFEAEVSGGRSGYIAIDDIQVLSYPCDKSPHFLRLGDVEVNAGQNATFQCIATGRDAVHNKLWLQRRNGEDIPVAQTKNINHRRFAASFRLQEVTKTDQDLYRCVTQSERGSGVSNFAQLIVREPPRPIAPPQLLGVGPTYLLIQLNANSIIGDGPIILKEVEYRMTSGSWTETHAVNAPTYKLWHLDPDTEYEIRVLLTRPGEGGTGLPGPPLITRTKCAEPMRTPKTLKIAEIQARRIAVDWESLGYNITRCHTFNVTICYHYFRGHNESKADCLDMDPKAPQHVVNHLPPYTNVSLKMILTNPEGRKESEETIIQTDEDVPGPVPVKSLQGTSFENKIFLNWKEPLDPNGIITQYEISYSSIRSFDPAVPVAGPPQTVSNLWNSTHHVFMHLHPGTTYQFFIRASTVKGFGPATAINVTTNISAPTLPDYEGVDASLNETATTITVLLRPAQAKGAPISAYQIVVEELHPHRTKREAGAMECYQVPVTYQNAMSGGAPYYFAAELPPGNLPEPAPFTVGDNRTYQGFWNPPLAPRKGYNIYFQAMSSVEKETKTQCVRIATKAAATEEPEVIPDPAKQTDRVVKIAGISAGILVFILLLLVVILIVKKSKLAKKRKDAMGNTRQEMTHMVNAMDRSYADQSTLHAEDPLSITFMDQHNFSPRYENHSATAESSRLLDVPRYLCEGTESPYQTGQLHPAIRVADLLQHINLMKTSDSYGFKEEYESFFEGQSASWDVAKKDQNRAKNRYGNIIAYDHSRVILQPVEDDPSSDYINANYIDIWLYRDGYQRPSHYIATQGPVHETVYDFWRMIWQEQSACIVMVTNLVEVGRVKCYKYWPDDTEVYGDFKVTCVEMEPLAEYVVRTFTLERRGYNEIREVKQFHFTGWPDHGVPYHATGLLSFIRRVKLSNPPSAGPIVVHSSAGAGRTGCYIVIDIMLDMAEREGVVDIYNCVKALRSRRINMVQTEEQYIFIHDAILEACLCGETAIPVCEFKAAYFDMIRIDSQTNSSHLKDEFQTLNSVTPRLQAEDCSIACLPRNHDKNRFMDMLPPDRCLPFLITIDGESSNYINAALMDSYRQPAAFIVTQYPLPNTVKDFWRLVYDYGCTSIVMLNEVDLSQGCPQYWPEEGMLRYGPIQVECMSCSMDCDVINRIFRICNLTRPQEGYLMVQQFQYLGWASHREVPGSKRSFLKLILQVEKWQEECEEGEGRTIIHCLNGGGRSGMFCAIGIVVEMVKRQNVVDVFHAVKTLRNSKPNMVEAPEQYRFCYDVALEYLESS

[4] = target: T3, PTPRK ICD-D1057A (substrate-trapping mutant) (human) (UniProt Q15262); assay: affinity purification with mass spectrometry; biotinylated His.TEV.Avi PTPRK domains on streptavidin-coated magnetic beads; 1 mg/ml pre-cleared lysate of confluent, pervanadate-treated MCF10A cells, 1.5 hr at 4°C; washes with 150 mM and 500 mM NaCl wash buffers; on-bead tryptic digest; label-free quantification against beads only or the wildtype ICD (n = 4; D2 n = 3); only the target purified
T3 sequence (chain, biotin on the AviTag): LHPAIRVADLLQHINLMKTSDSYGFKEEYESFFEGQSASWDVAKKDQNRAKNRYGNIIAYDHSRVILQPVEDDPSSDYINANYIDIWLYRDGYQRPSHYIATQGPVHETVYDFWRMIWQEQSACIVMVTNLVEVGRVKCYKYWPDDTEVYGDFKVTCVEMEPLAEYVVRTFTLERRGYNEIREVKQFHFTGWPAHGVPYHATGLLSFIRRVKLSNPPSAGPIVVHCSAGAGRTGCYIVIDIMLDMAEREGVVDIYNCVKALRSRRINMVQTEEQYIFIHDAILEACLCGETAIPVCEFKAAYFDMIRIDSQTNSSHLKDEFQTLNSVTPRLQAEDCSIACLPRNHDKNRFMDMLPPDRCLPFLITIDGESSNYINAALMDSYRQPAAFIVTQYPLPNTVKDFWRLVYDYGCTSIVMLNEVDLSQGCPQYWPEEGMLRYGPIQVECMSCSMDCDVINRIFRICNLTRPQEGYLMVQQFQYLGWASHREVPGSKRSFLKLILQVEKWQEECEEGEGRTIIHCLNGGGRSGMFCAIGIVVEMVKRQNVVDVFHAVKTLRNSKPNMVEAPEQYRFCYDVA

[5] = target: T3, PTPRK ICD-D1057A (substrate-trapping mutant) (human); assay: affinity purification with mass spectrometry; as for MCF10A, with lysates of confluent, pervanadate-treated Hs27 human fibroblasts (n = 3); only the target purified

Molecule	binding [1]	binding [2]	binding [3]	binding [4]	binding [5]
PARD3 (from UniProt Q8TEW0 1-1356)	binds	binds	binds	–	–
MAP4K4 (from UniProt O95819 1-1239)	–	–	–	binds	binds
RAPGEF6 (from UniProt Q8TEU7 1-1601)	–	–	–	binds	binds
PLEKHA6 (protein, UniProt Q9Y2H5 1-1048) MSNKTGGKRPATTNSDIPNHNMVSEVPPERPSVRATRTARKAVAFGKRSHSMKRNPNAPVTKAGWLFKQASSGVKQWNKRWFVLVDRCLFYYKDEKEESILGSIPLLSFRVAAVQPSDNISRKHTFKAEHAGVRTYFFSAESPEEQEAWIQAMGEAARVQIPPAQKSVPQAVRHSHEKPDSENVPPSKHHQQPPHNSLPKPEPEAKTRGEGDGRGCEKAERRPERPEVKKEPPVKANGLPAGPEPASEPGSPYPEGPRVPGGGEQPAQPNGWQYHSPSRPGSTAFPSQDGETGGHRRSFPPRTNPDKIAQRKSSMNQLQQWVNLRRGVPPPEDLRSPSRFYPVSRRVPEYYGPYSSQYPDDYQYYPPGVRPESICSMPAYDRISPPWALEDKRHAFRNGGGPAYQLREWKEPASYGRQDATVWIPSPSRQPVYYDELDAASSSLRRLSLQPRSHSVPRSPSQGSYSRARIYSPVRSPSARFERLPPRSEDIYADPAAYVMRRSISSPKVPPYPEVFRDSLHTYKLNEQDTDKLLGKLCEQNKVVREQDRLVQQLRAEKESLESALMGTHQELEMFGSQPAYPEKLRHKKDSLQNQLINIRVELSQATTALTNSTIEYEHLESEVSALHDDLWEQLNLDTQNEVLNRQIQKEIWRIQDVMEGLRKNNPSRGTDTAKHRGGLGPSATYSSNSPASPLSSASLTSPLSPFSLVSGSQGSPTKPGSNEPKANYEQSKKDPHQTLPLDTPRDISLVPTRQEVEAEKQAALNKVGVVPPRTKSPTDDEVTPSAVVRRNASGLTNGLSSQERPKSAVFPGEGKVKMSVEEQIDRMRRHQSGSMREKRRSLQLPASPAPDPSPRPAYKVVRRHRSIHEVDISNLEAALRAEEPGGHAYETPREEIARLRKMELEPQHYDVDINKELSTPDKVLIPERYIDLEPDTPLSPEELKEKQKKVERIKTLIAKSSMQNVVPIGEGDSVDVPQDSESQLQEQEKRIEISCALATEASRRGRMLSVQCATPSPPTSPASPAPPANPLSSESPRGADSSYTMRV	binds	binds	–	–	–

From paper PMC6440744
